Measurements reported in PubChem BioAssay AID504784 (Drosophila RNAi Screening Center, 2011)
The screen tested about 17,000 reagents; below is an unselected part of those with a known target gene and a result. 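Each column is one replicate's B-score; the combined score over replicates was not deposited, so single values may mislead.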 Further read-outs or replicates are left out here.

Purpose: 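Search for regulators of lipid droplet storage in oleate-fed fly cells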 (primary screen)
Cell system: Drosophila Kc167 embryonic cells
Reagents: long dsRNA against Drosophila genes, about 250 ng dsRNA per well
Duration: 4 days
Treatment: cells fed 400 µM oleic acid bound to BSA
Read-out: 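Cells imaged and segmented; ratio of lipid droplet area to nuclear area, log-transformed, then normalised as a B-score over the screen; higher means more stored lipid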
Scale: droplet/nuclear area B-score: higher = more stored lipid (overstorage)

{"target gene": "HGTX", "DRSC id": "DRSC09319", "droplet/nuclear area B-score, replicate 1": 1.1}
{"target gene": "HGTX", "DRSC id": "DRSC11181", "droplet/nuclear area B-score, replicate 1": 1.1}
{"target gene": "Hat1", "DRSC id": "DRSC12298", "droplet/nuclear area B-score, replicate 1": -0.586}
{"target gene": "SsRbeta", "DRSC id": "DRSC11290", "droplet/nuclear area B-score, replicate 1": 0.56}
{"target gene": "CG3788", "DRSC id": "DRSC04418", "droplet/nuclear area B-score, replicate 1": 0.293}
{"target gene": "CG32603", "DRSC id": "DRSC19409", "droplet/nuclear area B-score, replicate 1": 1.68}
{"target gene": "CG32603", "DRSC id": "DRSC21586", "droplet/nuclear area B-score, replicate 1": 1.1}
{"target gene": "CG5390", "DRSC id": "DRSC02855", "droplet/nuclear area B-score, replicate 1": -0.6}
{"target gene": "Or46a", "DRSC id": "DRSC07489", "droplet/nuclear area B-score, replicate 1": -1.14}
{"target gene": "Or46a", "DRSC id": "DRSC07490", "droplet/nuclear area B-score, replicate 1": -2.19}
{"target gene": "Or46a", "DRSC id": "DRSC21590", "droplet/nuclear area B-score, replicate 1": -0.817}
{"target gene": "CG14995", "DRSC id": "DRSC08452", "droplet/nuclear area B-score, replicate 1": 3.02}
{"target gene": "CG14995", "DRSC id": "DRSC22991", "droplet/nuclear area B-score, replicate 1": -0.0903}
{"target gene": "Octalpha2R", "DRSC id": "DRSC13319", "droplet/nuclear area B-score, replicate 1": -0.376}
{"target gene": "Octalpha2R", "DRSC id": "DRSC15314", "droplet/nuclear area B-score, replicate 1": 2.69}
{"target gene": "CG12395", "DRSC id": "DRSC19453", "droplet/nuclear area B-score, replicate 1": 0.444}

In a second layout: results already given
{"target gene":"SsRbeta","DRSC id":"DRSC11290","droplet/nuclear area B-score, replicate 1":0.56}
{"target gene":"CG3788","DRSC id":"DRSC04418","droplet/nuclear area B-score, replicate 1":0.293}
